# Measurements reported in the supplement of paper PMC10849652.
# Amino acid sequences for entries named in this document (tags omitted). A change or cut given only in a name is not applied to a line headed by its entry.
# UniProt Q8NEM2: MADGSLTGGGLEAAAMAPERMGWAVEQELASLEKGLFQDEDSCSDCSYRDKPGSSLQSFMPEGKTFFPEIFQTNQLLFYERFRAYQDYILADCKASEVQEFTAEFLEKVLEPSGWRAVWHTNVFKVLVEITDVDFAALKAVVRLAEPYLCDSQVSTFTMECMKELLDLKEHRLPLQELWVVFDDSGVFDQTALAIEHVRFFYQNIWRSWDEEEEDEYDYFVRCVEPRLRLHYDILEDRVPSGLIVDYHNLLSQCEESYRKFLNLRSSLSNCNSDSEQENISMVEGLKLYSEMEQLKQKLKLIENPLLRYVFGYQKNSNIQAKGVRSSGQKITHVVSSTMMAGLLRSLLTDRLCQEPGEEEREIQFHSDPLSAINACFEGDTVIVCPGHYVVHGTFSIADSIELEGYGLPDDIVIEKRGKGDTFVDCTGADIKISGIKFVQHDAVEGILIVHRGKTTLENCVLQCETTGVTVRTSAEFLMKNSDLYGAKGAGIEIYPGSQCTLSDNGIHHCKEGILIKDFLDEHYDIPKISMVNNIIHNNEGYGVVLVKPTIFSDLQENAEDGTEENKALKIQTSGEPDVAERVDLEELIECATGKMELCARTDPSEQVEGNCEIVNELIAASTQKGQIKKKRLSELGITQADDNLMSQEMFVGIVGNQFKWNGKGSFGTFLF
# UniProt Q99961: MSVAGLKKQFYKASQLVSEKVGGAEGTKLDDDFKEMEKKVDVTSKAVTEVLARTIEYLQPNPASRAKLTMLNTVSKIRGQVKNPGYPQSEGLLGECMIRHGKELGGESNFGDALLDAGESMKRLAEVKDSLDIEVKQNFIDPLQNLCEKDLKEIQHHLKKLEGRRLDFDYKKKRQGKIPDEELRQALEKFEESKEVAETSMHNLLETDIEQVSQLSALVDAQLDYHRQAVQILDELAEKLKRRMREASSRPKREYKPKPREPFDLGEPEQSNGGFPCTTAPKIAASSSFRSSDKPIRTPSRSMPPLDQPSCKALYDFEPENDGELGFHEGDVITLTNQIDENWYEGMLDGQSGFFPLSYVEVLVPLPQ
# UniProt Q9GZR1: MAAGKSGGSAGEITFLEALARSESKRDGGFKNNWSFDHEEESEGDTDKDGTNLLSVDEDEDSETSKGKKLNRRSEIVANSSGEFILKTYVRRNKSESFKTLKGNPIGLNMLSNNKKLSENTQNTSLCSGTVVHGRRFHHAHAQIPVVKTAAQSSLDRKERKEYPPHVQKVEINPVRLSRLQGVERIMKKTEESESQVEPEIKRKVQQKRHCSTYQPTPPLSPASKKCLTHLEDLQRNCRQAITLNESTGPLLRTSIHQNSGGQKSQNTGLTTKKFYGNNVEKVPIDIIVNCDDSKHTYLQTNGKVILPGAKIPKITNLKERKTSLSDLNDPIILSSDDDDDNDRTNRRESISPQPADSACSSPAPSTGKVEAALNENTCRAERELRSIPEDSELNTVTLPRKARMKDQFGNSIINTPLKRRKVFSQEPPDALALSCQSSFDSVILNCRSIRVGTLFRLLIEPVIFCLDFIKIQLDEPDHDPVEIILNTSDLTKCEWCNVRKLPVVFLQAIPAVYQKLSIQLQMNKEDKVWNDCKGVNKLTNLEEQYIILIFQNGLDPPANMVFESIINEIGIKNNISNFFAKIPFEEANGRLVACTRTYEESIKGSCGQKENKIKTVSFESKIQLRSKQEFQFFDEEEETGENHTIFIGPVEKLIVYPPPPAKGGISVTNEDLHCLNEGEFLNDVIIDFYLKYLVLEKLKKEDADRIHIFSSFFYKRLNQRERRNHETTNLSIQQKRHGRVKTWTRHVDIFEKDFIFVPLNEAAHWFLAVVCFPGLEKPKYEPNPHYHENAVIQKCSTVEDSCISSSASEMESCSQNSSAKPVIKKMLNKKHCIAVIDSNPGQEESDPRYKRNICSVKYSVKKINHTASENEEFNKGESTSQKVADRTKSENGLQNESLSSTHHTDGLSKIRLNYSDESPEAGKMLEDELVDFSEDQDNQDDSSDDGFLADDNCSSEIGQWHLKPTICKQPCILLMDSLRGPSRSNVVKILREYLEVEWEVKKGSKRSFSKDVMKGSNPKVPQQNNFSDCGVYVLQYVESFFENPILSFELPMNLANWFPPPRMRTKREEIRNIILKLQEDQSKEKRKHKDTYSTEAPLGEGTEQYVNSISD
# UniProt Q16181: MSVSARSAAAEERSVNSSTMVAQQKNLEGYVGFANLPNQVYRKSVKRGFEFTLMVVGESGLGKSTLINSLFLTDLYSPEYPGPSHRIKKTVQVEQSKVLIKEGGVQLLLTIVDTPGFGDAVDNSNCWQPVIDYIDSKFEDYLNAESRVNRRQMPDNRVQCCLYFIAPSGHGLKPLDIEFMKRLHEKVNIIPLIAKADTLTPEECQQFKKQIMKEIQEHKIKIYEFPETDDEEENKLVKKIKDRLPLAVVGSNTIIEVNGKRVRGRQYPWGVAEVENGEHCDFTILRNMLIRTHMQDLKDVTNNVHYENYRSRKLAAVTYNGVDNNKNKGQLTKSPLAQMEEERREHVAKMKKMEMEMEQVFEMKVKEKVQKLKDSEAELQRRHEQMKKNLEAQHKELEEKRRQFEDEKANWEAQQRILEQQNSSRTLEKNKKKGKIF
# UniProt P50453: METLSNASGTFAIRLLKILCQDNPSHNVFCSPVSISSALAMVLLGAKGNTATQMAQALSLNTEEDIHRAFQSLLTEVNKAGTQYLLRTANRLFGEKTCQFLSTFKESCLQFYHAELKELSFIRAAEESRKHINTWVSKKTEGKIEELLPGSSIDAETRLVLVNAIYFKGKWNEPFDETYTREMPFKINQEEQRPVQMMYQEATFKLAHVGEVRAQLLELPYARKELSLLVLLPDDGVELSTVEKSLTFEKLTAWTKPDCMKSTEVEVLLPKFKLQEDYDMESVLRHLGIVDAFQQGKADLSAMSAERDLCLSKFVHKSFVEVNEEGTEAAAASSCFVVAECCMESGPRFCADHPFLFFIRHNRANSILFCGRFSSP
# UniProt Q13228: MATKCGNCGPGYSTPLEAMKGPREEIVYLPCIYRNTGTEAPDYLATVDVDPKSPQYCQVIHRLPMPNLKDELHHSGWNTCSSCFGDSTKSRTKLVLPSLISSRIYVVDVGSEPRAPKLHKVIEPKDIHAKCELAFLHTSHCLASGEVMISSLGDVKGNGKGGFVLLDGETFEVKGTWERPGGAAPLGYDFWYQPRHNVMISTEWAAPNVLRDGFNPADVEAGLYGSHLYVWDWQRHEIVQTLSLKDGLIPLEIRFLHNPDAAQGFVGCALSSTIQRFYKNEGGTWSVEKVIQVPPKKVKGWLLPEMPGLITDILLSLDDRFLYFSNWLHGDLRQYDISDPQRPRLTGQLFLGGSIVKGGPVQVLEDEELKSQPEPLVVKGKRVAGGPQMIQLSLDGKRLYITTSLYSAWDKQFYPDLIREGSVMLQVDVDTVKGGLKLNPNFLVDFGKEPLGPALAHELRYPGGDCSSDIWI
# UniProt Q92599: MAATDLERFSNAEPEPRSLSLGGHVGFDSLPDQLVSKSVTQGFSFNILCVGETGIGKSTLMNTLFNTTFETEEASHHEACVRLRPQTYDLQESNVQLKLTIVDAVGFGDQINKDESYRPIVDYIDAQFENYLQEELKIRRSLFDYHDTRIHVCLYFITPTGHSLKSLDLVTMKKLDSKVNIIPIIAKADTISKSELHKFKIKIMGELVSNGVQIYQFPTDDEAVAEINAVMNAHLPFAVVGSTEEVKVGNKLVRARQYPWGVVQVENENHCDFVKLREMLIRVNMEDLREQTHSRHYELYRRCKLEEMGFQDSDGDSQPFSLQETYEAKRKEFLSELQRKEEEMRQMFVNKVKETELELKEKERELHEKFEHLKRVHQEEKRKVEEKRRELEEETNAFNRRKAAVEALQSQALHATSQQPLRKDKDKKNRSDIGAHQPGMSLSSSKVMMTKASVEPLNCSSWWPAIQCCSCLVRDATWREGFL
# UniProt Q8IUQ4: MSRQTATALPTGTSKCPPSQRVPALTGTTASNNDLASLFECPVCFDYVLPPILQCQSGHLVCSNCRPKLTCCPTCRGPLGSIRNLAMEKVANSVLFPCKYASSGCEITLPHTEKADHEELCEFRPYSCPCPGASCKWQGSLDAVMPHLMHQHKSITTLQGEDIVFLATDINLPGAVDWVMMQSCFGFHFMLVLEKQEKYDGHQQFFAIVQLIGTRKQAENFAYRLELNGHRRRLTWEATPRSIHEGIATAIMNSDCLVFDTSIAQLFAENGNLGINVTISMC
# UniProt Q9NP50: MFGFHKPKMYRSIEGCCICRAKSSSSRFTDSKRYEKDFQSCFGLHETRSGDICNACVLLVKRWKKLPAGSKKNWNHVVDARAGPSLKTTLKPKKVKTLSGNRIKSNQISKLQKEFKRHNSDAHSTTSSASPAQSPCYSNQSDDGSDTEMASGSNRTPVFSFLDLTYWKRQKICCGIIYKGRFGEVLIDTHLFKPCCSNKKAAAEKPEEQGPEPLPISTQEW
# UniProt O14796: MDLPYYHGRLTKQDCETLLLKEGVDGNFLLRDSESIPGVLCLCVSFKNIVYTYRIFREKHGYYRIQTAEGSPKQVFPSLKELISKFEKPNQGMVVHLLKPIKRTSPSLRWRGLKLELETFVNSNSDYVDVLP
# UniProt Q9NP31, whole entry, looked up: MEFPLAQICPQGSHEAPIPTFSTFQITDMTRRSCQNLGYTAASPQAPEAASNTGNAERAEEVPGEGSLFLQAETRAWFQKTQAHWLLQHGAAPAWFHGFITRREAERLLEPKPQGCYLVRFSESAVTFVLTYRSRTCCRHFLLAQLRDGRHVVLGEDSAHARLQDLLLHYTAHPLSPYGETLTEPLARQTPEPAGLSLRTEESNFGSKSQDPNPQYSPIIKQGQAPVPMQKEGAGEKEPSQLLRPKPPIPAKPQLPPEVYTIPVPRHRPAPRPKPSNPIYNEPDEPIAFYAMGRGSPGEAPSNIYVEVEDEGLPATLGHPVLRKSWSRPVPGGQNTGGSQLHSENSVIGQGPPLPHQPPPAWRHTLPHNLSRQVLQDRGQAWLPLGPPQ
# UniProt Q9C0D9, whole entry, looked up: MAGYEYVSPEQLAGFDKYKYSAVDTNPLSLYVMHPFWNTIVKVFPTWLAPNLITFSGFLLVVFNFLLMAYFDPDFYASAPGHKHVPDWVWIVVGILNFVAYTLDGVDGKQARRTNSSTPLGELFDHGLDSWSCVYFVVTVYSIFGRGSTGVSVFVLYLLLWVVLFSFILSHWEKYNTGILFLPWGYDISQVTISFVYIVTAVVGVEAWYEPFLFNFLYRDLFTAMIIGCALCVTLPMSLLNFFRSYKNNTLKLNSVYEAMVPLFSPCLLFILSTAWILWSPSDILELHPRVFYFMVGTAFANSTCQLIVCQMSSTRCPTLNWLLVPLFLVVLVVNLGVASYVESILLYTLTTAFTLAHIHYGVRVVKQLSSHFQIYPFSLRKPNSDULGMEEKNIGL
# UniProt O43255: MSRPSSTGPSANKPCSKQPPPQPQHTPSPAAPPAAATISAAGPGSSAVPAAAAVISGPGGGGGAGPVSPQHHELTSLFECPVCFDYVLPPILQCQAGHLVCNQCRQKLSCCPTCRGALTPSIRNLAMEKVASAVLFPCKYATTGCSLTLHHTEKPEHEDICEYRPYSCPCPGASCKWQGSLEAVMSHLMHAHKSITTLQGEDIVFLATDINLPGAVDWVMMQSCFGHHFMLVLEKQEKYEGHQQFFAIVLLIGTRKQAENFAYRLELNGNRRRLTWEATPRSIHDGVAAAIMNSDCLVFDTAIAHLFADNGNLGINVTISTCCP
# UniProt Q8N196: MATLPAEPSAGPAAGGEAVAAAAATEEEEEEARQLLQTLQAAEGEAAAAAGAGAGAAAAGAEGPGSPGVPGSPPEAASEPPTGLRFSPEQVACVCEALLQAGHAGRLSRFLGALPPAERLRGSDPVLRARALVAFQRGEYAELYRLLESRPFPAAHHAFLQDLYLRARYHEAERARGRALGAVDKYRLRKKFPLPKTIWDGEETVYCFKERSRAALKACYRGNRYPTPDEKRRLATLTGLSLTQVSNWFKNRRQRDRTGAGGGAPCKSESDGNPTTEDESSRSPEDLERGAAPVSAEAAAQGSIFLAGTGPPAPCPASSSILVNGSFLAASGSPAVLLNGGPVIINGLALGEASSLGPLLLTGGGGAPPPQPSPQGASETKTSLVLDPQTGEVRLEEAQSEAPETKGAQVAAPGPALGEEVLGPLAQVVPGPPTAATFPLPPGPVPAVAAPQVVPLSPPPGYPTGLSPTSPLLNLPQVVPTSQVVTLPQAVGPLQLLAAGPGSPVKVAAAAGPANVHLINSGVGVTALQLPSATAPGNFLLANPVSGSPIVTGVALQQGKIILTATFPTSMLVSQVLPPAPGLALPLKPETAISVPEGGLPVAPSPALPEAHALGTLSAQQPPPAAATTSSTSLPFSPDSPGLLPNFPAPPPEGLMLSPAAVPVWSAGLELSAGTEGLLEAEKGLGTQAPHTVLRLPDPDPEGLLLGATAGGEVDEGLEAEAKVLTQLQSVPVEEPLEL
# UniProt Q9BWJ5: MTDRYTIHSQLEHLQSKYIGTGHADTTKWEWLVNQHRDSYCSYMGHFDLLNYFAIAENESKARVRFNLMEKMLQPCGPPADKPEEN
# The other results are listed elsewhere or left out. Residues, ends and D or L forms follow the SMILES beside them. *: point of attachment. Cbz = O=C(OCc1ccccc1)*
# Columns and labels:
# Test in all cases: log2 fold change, soluble protein after heating vs DMSO (PISA); higher = thermal stabilisation; K562 cells, 10 uM, 30 min; active = over 0.2 and 3.5 SD of the protein, either way, in both replicates (recomputed)
# IRAK-1-4 Inhibitor I = compound: C1COCCN1CCN2C3=CC=CC=C3N=C2NC(=O)C4=CC(=CC=C4)[N+](=O)[O-] [IRAK-1-4 Inhibitor I]
# Summary of the method: (§1)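 Soluble protein was quantified by TMTpro 16plex LC-MS/MS after channel sums were equalised. It was obtained as the supernatant after 21,000xg for 90 min from pooled aliquots of K562 cells (2×10^6 cells/mL, 10 μM compound, 30 min) heated for 3 min across 48°C-58°C and extracted in PBS with 0.5% NP-40 at 4°C. Thermal stability values are relative to control samples and come from duplicates. They are given as log2 fold changes.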
# ibrutinib = compound: C=CC(=O)N1CCC[C@@H](n2nc(-c3ccc(Oc4ccccc4)cc3)c3c(N)ncnc32)C1 [ibrutinib]
# Summary of the method: as §1
# [1] = compound: CC(=O)c1cnc2ccc(-c3cc(Cl)c(O)c(Cl)c3)nc2c1N[C@H]1CC[C@H](CN(C)C)CC1
# Summary of the method: as §1
# ralimetinib = compound: CC(C)(C)Cn1c(N)nc2ccc(-c3[nH]c(C(C)(C)C)nc3-c3ccc(F)cc3)nc21 [ralimetinib]
# Summary of the method: as §1
# [2] = compound: CC(C)(O)CC(=O)NCCn1ccc2ncnc(Nc3ccc(Oc4cccc(C(F)(F)F)c4)c(Cl)c3)c21
# Summary of the method: as §1
# [3] = compound: CC(C)C1=C2N=C(C=C(N2N=C1)NCC3=CC=CC=C3)NCCCCCCN
# Summary of the method: as §1
# [4] = compound: CC(C)C[C@@H](C=O)NC(=O)[C@H](CC(C)C)NC(=O)[C@H](CC(C)C)NC(=O)OCc1ccccc1
# Summary of the method: as §1
# pinometostat = compound: CC(C)N(C[C@H]1O[C@@H](n2cnc3c(N)ncnc32)[C@H](O)[C@@H]1O)[C@H]1C[C@@H](CCc2nc3cc(C(C)(C)C)ccc3[nH]2)C1 [pinometostat]
# Summary of the method: as §1
# [5] = compound: CC1=C(C2=C(C=C1)C(=O)C3=CC=CC=C3N2CCCN)C
# Summary of the method: as §1
# [6] = compound: CC1=C(C(CC(=O)N1)C2=CC=C(C=C2)C(F)(F)F)C(=O)NC3=C(C=C4C(=C3)C=NN4)F
# Summary of the method: as §1
Target,log2 fold change (IRAK-1-4 Inhibitor I),log2 fold change (ibrutinib),log2 fold change [1],log2 fold change (ralimetinib),log2 fold change [2],log2 fold change [3],log2 fold change [4],log2 fold change (pinometostat),log2 fold change [5],log2 fold change [6]
SHCBP1 (UniProt Q8NEM2),inactive: -0.11,inactive: -0.072,inactive: -0.013,inactive: 0.025,inactive: -0.121,active: -0.516,inactive: 0.012,inactive: 0.066,inactive: 0.02,
SH3GL1 (UniProt Q99961),inactive: -0.09,inactive: -0.021,inactive: -0.059,inactive: 0.052,inactive: -0.097,inactive: -0.238,inactive: 0.013,inactive: 0.032,inactive: 0.037,
SERPINB1 (UniProt P30740),inactive: 0.038,inactive: -0.014,inactive: -0.018,inactive: -0.016,inactive: -0.019,inactive: 0.022,inactive: -0.014,inactive: -0.024,inactive: 0.013,inactive: -0.011
SENP6 (UniProt Q9GZR1),inactive: 0.005,inactive: -0.018,inactive: -0.063,inactive: -0.031,inactive: -0.058,inactive: 0.094,inactive: 0.043,inactive: 0.004,inactive: 0.057,
SEPTIN7 (UniProt Q16181),inactive: -0.014,inactive: -0.025,inactive: 0.001,inactive: 0.058,inactive: -0.014,inactive: 0.042,inactive: -0.056,inactive: -0.061,inactive: 0.01,inactive: 0.029
SERPINB9 (UniProt P50453),inactive: 0.033,inactive: 0.02,inactive: 0.01,inactive: -0.02,inactive: -0.029,inactive: 0.072,inactive: -0.021,inactive: -0.033,inactive: 0.019,inactive: -0.03
SFXN5 (UniProt Q8TD22),inactive: 0.225,inactive: -0.048,inactive: -0.013,inactive: -0.001,inactive: -0.175,inactive: -0.083,inactive: 0.187,inactive: 0.03,inactive: 0.09,
SELENOT (UniProt P62341),inactive: 0.086,inactive: -0.046,inactive: 0.173,inactive: -0.038,inactive: -0.09,inactive: -0.02,inactive: 0.048,inactive: 0.077,inactive: 0.008,inactive: 0.146
SGPL1 (UniProt O95470),inactive: -0.05,inactive: -0.018,inactive: -0.045,inactive: 0.159,inactive: 0.017,inactive: 0.06,inactive: 0.002,inactive: 0.1,inactive: 0.146,
SELENBP1 isoform 4 (UniProt Q13228),inactive: 0.005,inactive: 0.013,inactive: 0.01,inactive: -0.004,inactive: -0.01,inactive: 0.056,inactive: -0.02,inactive: -0.06,inactive: -0.015,inactive: -0.018
SERINC1 (UniProt Q9NRX5),inactive: 0,inactive: 0.023,inactive: 0,inactive: -0.106,inactive: -0.235,active: -0.568,inactive: 0.095,inactive: -0.022,inactive: 0,
SEPTIN8 (UniProt Q92599),inactive: 0.039,inactive: 0.003,inactive: -0.034,inactive: -0.066,inactive: -0.007,inactive: 0.034,inactive: 0,inactive: -0.025,inactive: -0.007,inactive: -0.004
"SERPINB6, A0A2R8Y7E5",inactive: -0.079,inactive: 0.02,,,inactive: -0.229,,,inactive: -0.04,,
SKAP2 (UniProt O75563),inactive: -0.067,,inactive: -0.061,inactive: -0.011,,inactive: -0.133,inactive: 0.069,inactive: 0.042,inactive: -0.092,
SIGIRR (UniProt H0YDR5),inactive: -0.151,,,,,inactive: 0.13,,inactive: 0.635,,
SIAH1 isoform 2 (UniProt Q8IUQ4),inactive: 0.179,inactive: -0.078,inactive: 0.045,,inactive: -0.094,inactive: 0.008,,inactive: -0.141,inactive: 0.016,
SEPTIN5 (UniProt G3XAH0),,inactive: 0.018,inactive: 0.123,inactive: -0.056,inactive: -0.133,inactive: 0.092,inactive: -0.009,,inactive: 0.027,
SINHCAF (UniProt Q9NP50),inactive: 0.884,,,,inactive: 1.2,,,inactive: -0.739,,

# An excerpt of these results, with bars between the fields.
Target | log2 fold change (IRAK-1-4 Inhibitor I) | log2 fold change (ibrutinib) | log2 fold change [1] | log2 fold change (ralimetinib) | log2 fold change [2] | log2 fold change [3] | log2 fold change [4] | log2 fold change (pinometostat) | log2 fold change [5] | log2 fold change [6]
SEPTIN8 (UniProt Q92599) | inactive: 0.039 | inactive: 0.003 | inactive: -0.034 | inactive: -0.066 | inactive: -0.007 | inactive: 0.034 | inactive: 0 | inactive: -0.025 | inactive: -0.007 | inactive: -0.004
SERPINB6, A0A2R8Y7E5 | inactive: -0.079 | inactive: 0.02 |  |  | inactive: -0.229 |  |  | inactive: -0.04 |  | 

# Additional entries:

Target,log2 fold change (IRAK-1-4 Inhibitor I),log2 fold change (ibrutinib),log2 fold change [1],log2 fold change (ralimetinib),log2 fold change [2],log2 fold change [3],log2 fold change [4],log2 fold change (pinometostat),log2 fold change [5],log2 fold change [6]
SIK3 (UniProt H0Y4E8),inactive: 0.043,,active: -0.425,inactive: 0.135,,inactive: 0.186,inactive: -0.167,inactive: -0.036,inactive: -0.124,
SH2D1B (UniProt O14796),inactive: 0.202,,active: -1.57,inactive: 0.042,inactive: -0.052,inactive: 0.095,inactive: 0.005,inactive: 0.027,inactive: -0.004,
SH2D2A isoform 2 (UniProt Q9NP31),inactive: 0.003,,inactive: -0.035,,,inactive: 0.077,,inactive: 0.053,,inactive: -0.034
SH2D3A (UniProt Q9BRG2),inactive: 0.088,,,inactive: -0.04,,inactive: -0.009,inactive: -0.089,inactive: 0.047,,inactive: 0.045
SHFL (UniProt Q9NUL5),,inactive: 0.136,inactive: -0.334,inactive: 0.077,inactive: 0.088,,inactive: -0.066,,inactive: 0.938,inactive: 0.01
SELENOI (UniProt Q9C0D9),inactive: -0.234,,,inactive: -0.161,,,inactive: -0.066,inactive: 0.166,,
SERBP1 isoform 3 (UniProt Q8NC51),,inactive: 0.103,inactive: 0.074,inactive: 0.024,inactive: 0.282,inactive: 0,inactive: 0.032,,inactive: -0.079,inactive: 0.038
SKA1 (UniProt Q96BD8),inactive: -0.146,,,inactive: 0.071,inactive: 0.081,,inactive: 0.127,inactive: 0.294,,inactive: 0.246
SIRT3 (UniProt Q9NTG7),inactive: -0.001,,inactive: -0.19,inactive: 0.062,,inactive: 0.045,inactive: 0.135,inactive: 0.142,,
SIAH2 (UniProt O43255),inactive: 0.046,inactive: 0.025,inactive: -0.056,inactive: 0.004,,,inactive: 0.038,inactive: -0.135,,inactive: 0.011
SENP8 (UniProt Q96LD8),inactive: -0.189,,,,,,,inactive: -0.172,,inactive: 0.08
SHROOM2 (UniProt Q13796),inactive: 0.236,inactive: 0.065,inactive: 0.137,,inactive: 0.009,inactive: 0.155,,inactive: -0.182,inactive: 0.072,
SETDB1 (UniProt Q15047),inactive: -0.017,,inactive: -0.028,inactive: 0.171,inactive: -0.358,inactive: 0.033,inactive: -0.012,inactive: -0.132,inactive: 0.129,inactive: 0.027
SIX5 (UniProt Q8N196),inactive: 0.084,inactive: 0.128,inactive: -0.105,inactive: -0.057,,,inactive: -0.013,inactive: -0.102,,
SHANK2 isoform 3 (UniProt Q9UPX8),inactive: -0.238,,,,inactive: 0.038,,,inactive: -0.009,,inactive: -0.122
SF1 (UniProt H7C0N4),inactive: -0.019,inactive: 0.148,inactive: -0.046,inactive: -0.033,,,inactive: 0.258,inactive: -0.049,inactive: 0.16,inactive: -0.04
SF3B5 (UniProt Q9BWJ5),inactive: 0.055,inactive: 0.127,inactive: -0.067,,inactive: -0.224,inactive: 0.118,,inactive: 0.045,inactive: 0.156,
